# Data: PMC11545376
# Protein sequences, listed by entry. Tags and fused reporters are not part of them.
# UniProt P01106: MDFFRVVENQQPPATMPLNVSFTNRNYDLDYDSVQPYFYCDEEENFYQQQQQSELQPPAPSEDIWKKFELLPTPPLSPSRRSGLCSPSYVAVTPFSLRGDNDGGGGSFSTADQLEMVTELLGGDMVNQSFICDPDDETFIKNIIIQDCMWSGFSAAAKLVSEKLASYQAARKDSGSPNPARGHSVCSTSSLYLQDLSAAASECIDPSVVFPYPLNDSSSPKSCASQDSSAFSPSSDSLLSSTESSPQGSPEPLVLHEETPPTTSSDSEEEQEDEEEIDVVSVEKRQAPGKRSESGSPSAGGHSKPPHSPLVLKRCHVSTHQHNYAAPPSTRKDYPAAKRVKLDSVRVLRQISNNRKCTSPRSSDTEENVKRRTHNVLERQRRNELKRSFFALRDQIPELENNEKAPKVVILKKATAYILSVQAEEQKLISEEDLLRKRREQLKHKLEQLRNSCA
# Results are given in words; binding and its absence hold for the method and conditions named. Binding seen in cells or lysates may run through a third protein. Some entries that bind do so weakly or less than the wild type.
# Biological target: T1, Ubiquitin-specific protease 1 (UniProt O94782)
# T1 sequence: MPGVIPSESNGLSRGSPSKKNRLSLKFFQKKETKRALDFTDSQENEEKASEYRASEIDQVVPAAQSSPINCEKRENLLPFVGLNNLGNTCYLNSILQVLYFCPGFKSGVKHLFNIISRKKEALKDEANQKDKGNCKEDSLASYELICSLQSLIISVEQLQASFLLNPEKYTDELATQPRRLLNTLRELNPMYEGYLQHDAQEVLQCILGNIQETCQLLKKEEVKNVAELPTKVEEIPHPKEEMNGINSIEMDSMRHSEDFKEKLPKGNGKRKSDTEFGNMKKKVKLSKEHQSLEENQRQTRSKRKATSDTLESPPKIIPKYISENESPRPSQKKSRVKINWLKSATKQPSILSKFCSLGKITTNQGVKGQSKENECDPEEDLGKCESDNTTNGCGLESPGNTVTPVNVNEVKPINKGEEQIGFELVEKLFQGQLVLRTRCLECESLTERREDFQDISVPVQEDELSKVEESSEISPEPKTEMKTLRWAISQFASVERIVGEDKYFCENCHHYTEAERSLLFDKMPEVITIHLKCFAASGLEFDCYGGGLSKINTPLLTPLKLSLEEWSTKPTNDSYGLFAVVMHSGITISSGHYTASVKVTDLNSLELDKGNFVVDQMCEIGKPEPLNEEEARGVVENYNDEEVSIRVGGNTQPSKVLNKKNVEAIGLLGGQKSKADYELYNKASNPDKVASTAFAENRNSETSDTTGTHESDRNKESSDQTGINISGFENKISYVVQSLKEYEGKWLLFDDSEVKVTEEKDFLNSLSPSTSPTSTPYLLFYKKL
# Test: co-IP; HEK293 cells lysed in NP-40 lysis buffer (20 mM Tris-HCl pH 7.4, 150 mM NaCl, 1% NP-40) with protease inhibitor cocktail; supernatant incubated with the indicated antibodies and protein A/G magarose beads overnight at 4 °C; beads washed 3 times with lysis buffer; detection by Western …
substance,measurement,value
c-MYC (from UniProt P01106 1-454),binding,binds
